# Assay results as given in PubChem BioAssay AID1508600 (Functional Genomics Laboratory (NCATS/FGL), 2020).
# Out of some 53,000 sequences screened, about 3,700 (7%) were called active.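 The calls were made as follows: active = gene knockdowns whose robust z-score for IL-1 alpha signal is at least 2 or at most -2, so actives lie on both sides; inactive = the rest.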 This is one part of the list.
# Assay: Components of the Cytosolic LPS Sensing Pathway: Gene Identification via Genome-wide siRNA Screen;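 also: robust z of the log signal after scaling to non-targeting control siRNA wells of the plate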
# Settings: RAW264.7 macrophages, IL-1a HTRF, actives lie on both sides, screened at 100 nM (by protocol), cells primed 5 h with Pam3CSK4 first
# Outline: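 Using IL-1a HTRF as read-out, the screen measured release from RAW264.7 cells after 48h siRNA knockdown (100 nM), 5 h Pam3CSK4 priming and 24 h cytosolic LipidA. Values were expressed relative to negative-control wells as robust z-scores.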
row,Sequence,z-score
1,GGGAUACUCCAGACAAGGUTT against Usp17ld,inactive: 0.142
2,GGGCAAGGAUUCUUUGUAUTT against Rpl36a,inactive: -1.14
3,GGAGGAGGAGCUGAAGAAATT against Atp12a,inactive: -0.679
4,GGGCUUUGUUCGUGGUACATT against Zfp607b,inactive: 0.0654
5,GCCAGUGUGUAUCAAAAAATT against Elof1,inactive: -0.5
6,GGCCGCCCUAAAAAGAAGCTT against Olfr95,inactive: 1.29
7,GGAUUUGUUAACCAGACAUTT against Cab39l,inactive: -0.0191
8,GCGGUGUGUUUCAAUAGUUTT against Clec4n,inactive: 0.919
9,GCGAUUGAAAACAUACUUCTT against Chst10,inactive: 0.497
10,GGAUGAACAUUCUGGAAAUTT against Aggf1,inactive: -0.493
11,GGAGAACAAAACCUCAGGATT against Hoxb7,inactive: -0.432
12,GUAUGCUAGCAUGAUCAACTT against Ndufa3,inactive: 1.05
13,GGAUAUGGAUUCUCCCGAUTT against Krtap19-5,inactive: -0.219
14,GGAGAAGAAGGUGAAGAAGTT against Ppp1r3b,inactive: -0.775
15,GGUCAUCAAACACAAUUUATT against Prlr,inactive: -0.356
16,GGCCCAUUGUUUGAGCCCATT against A530013C23Rik,inactive: -0.961
17,GGGAAAAAUGGCCUUUCUGTT against Kndc1,inactive: 1.96
18,GGAGAUUUAACUGAAAGACTT against Zfp410,inactive: -0.0134
19,GCUAUGCUGAGGAAAAAAATT against Higd1b,inactive: 0.0931
20,GAGUCACAUGUACCUGGCCTT against Bricd5,inactive: 0.523
21,GCUCUGAUUCAGCAAGAGUTT against Rsph6a,inactive: -0.128
22,UGGCGAGAUCGGCAUUGGUTT against Ren2,inactive: -0.319
23,GGAAGUGCUAUUAAUUGUUTT against Gm9725,inactive: 1.01

# Part of the list above, tab-delimited.
row	Sequence	z-score
5	GCCAGUGUGUAUCAAAAAATT against Elof1	inactive: -0.5
6	GGCCGCCCUAAAAAGAAGCTT against Olfr95	inactive: 1.29
9	GCGAUUGAAAACAUACUUCTT against Chst10	inactive: 0.497
19	GCUAUGCUGAGGAAAAAAATT against Higd1b	inactive: 0.0931
20	GAGUCACAUGUACCUGGCCTT against Bricd5	inactive: 0.523

# More entries:

row,Sequence,z-score
1,GGAGUUUUCAAUUUUGAUGTT against Il17rb,inactive: -0.2
2,GGAGUUAACAAGAUGAGCGTT against Arhgap24,inactive: -0.0398
3,GGAUUAUGUCAAGGUCAAATT against Ntng2,inactive: 0.227
4,GCUACCAUGAGAUUUCUAATT against Dido1,inactive: -0.321
5,GGACAUGGUGUUGUGCUAUTT against Myt1l,inactive: -0.988
6,GGAGUACGAAGACUUCUCUTT against Ankrd33b,inactive: -1.95
7,GGAGCUCUACAUCAUAGACTT against Lhx1,inactive: 0.579
8,GGAAGAUUUUUCAAAGGAUTT against Itgb6,inactive: -0.325
9,UCCCUAUCACUUGAGUUUUTT against Pgbd1,inactive: 0.831
10,GGGAUUUCACCACAGACAGTT against Gtf2a1,inactive: -0.993
11,GGCUUACUUACCACAGAAUTT against Mlycd,inactive: -1.51
12,GCCAGGAAACGACAAUAAATT against Slc5a11,inactive: 0.731
13,GAACAAAUGAGGUCCUCAGTT against Sprr2h,inactive: -1.11
14,CGAUGAAUUUAGGAGAUCUTT against Sugct,inactive: -0.249
15,GGUGCCUUUCAUUUUUAACTT against Lamp2,inactive: 0.0373
16,GGCCAGACACAGGUAGACATT against B9d2,inactive: -1.85
17,CCAAGUUCAUUCUUUUUGCTT against Cobll1,inactive: 1.2
18,GCCUUUGAUCUGAUGCACUTT against Adh5,inactive: 0.374
19,GGAAAACACGAGUUUCCCUTT against Arrdc4,inactive: 1.56
20,CCUAUAUGCCAAUCUUUCUTT against Rnf152,inactive: 0.174
21,GUGGCAAGAUGUGAGACUUTT against Rpl4,inactive: 0.343
22,CCAGGCCAAAUCUCACAAUTT against A730008H23Rik,active: -2.2
23,GGAUGGAUUACUGAAAGUUTT against Wdr35,inactive: 0.715

row,Sequence,z-score
1,GCUGCUGUGACUUAGAUAATT against Cds2,inactive: -0.668
2,GGAGAAGAGGAAAAUGCGUTT against Prr15,inactive: 0.411
3,GGUCUGAUUGUCCUCUCUUTT against Slc35b4,active: 3.25
4,GGAUUCUUCAUCCCUAAAUTT against 4930470P17Rik,inactive: 0.126
5,CGCAGCGACCAGCUUUCAATT against Srebf2,inactive: 0.789
6,GCUGUGAGCGGUGUAAGAATT against Usp20,inactive: -0.804
7,GGAAAGAUCUCCUAAAAUUTT against Lrp6,inactive: 0.412
8,GCAUUUCAGCAGAACAAUATT against Phldb1,inactive: 0.5
9,GCUGCCUCUUUCUUUGCUUTT against Pllp,inactive: -0.769
10,GGGAUAAUGAUGCAACUAATT against Tas2r137,inactive: -1.78
11,GGAGCUAAAUGGCUCUGAUTT against Boc,active: 2.98
12,GGUUCUAGACAAACAUUUUTT against Ubl4b,inactive: 0.532
13,GGUCACCUCUCCAUCUAGATT against Vmn2r57,inactive: 0.813
14,GGAGCAAGUAUUUACAUUGTT against Psmd10,inactive: 1.55
15,CCCAAUGUAUUCUACCUACTT against Cast,inactive: 1.12
16,GGAACAAGAGAGGACAAGUTT against Papss2,inactive: 0.555
17,CCACUAACGAUGCAAAAAATT against Mep1a,inactive: -0.973
18,AUUGGCAGUUAAGGACCGATT against Noto,inactive: -0.522
19,GGAAGGAAUUCUUCAACCUTT against Hsd3b2,inactive: -0.322
20,GGAUCUCAAUGUUCACUUGTT against Bpifb2,inactive: -0.817
21,GGUUUAAUGCGACAUAUUGTT against Vmn2r-ps54,inactive: -1.04
22,CCCUAACUCAAUGUACCAGTT against Slc27a1,inactive: 0.293
